## Results from one PubChem assay

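Genome-wide siRNA knockdown in TC32 Ewing sarcoma cells, comparing luciferase light from an NR0B1-promoter reporter with a CMV-promoter reporter 48 hours after transfection. Each siRNA was applied at 20 nM. A z-score of the log NR0B1-over-CMV signal, less the median of siRNAs with the same seed; more negative means a stronger specific loss of the NR0B1 reporter.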

This is part of the screen; most of the strongest results are not listed here. Sequences are the guide (antisense) strand, without overhang.

| siRNA | target gene | seed-corrected z-score |
|---|---|---|
| `AGUUUGUCUCCUUCGAUCC` | RBP7 | -0.8734 |
| `UCUAAGAGCAUACAAAUUC` | SNX22 | -0.1364 |
| `UGUUAUAUCGGGAUAUGCG` | UBE4B | -0.1952 |
| `UACGUCUUGCAGCACAUCC` | HAMP | -0.1947 |
| `UUUAGAGGCACUUUGAGUG` | SLC2A4RG | -0.2889 |
| `UUGCUUGCAAACGAUGCUC` | GLTSCR1L | -0.1433 |
| `AAGUGUAUUGCUUCAACUG` | RGS6 | -0.05592 |
| `UCUCUUUCCUUUAAUGCGC` | FCF1 | 2.776 |
| `AACCUUGUGGUAGGUAUCC` | NPHS2 | 0.2638 |
| `UGUAUAAAUGGAGGACUUC` | LOC391359 | -1.097 |
| `UAUAGUCUGAAGGUCAAUG` | M1AP | -0.6488 |
| `UCCCAAACAUACCUUUUCC` | DEFB136 | -0.05961 |
| `UCAACUAUCACUAUUAACC` | TRAPPC10 | 0.1523 |
| `UUCGAUGAAGGAAAGUACG` | XPOT | 0.2606 |
| `UCGGAGAUAAAGGAGCAUG` | F5 | -0.5664 |
| `AUAUUUAUCCAACAAUUCC` | YWHAQ | -1.648 |
| `UUGGUAUUGCAUUAUCUCG` | PRKRIR | 0.6785 |
| `UGCUCCAUCAUAAUAGGUC` | SCUBE2 | 0.798 |
| `UCUGGAUAUAAGUUGAUAG` | GINM1 | 0.4402 |
| `GUAGUAGCGGUUCAGCUCC` | PYY | -0.6997 |
| `AAAGGUAUAAUCUGUAGCA` | CCND3 | -0.5991 |
| `UUUGGACCAAGAAAGAACC` | SLC33A1 | 0.04966 |
| `AUCUUGGUAGUGAAGAUUC` | RPSAP48 | -1.83 |
| `UGUAUCUCCAGGUCGGUUG` | KRT26 | -0.1649 |
| `UUCAUUAGGUGAGACAACG` | RNF17 | -0.8509 |
| `UGUGGAUCUUCUCUAGGGC` | THTPA | -1.001 |
| `UAAGUACAGAACUCUCCGC` | CRYBA2 | -0.4043 |
| `AAAGUCGGAGGAGUCAUCG` | PTPN3 | -0.7042 |
| `UAUAGAUCAAAUGAGAUAG` | SPRY3 | -0.4476 |
| `AAAAGUUCCAGAAUCUUAC` | PEX7 | 0.5549 |
| `UUUACUUUUCUUACUAAGC` | C10orf95 | 0.7145 |
| `AUAAUUGUUAUCUUGAGUG` | TANK | 1.628 |
| `UAGAGGUUCAUAAGCGUCA` | GPR137 | -0.5818 |
| `UCAGCUUUAGCAGGGAUGU` | NAB2 | 0.4254 |
| `UUGUUGUCGAACUUCUUCC` | EFNB2 | 0.6629 |
| `UUCUAUUCUCUCCUGGUUC` | PDGFRL | -0.2478 |
| `UCUUGAUCGACUGCGAUCC` | RBM25 | -1.209 |
| `AAGUAAUUUACAUCAGUGC` | RAB6C | -1.17 |
| `UUCUUGACAAAGGCAAUAC` | SNX19 | -0.5192 |
| `UACAAGUUCAACACGUCCG` | ZNF286B | 0.2195 |
| `UUAUGUUAAUCAGCUCAUC` | MCFD2P1 | 1.196 |
| `UAAGUAAUGAAGGCCUUCG` | YIF1A | 1.404 |
| `UUUAGGGAAAUGUUGUGCC` | TBK1 | -0.2339 |
| `UUUGCUGUCACCGAAGCUC` | DNASE1L2 | 0.5927 |
| `UAACCUAAGCUCCAAGUCC` | GCC1 | 0.8249 |
| `AUGCGGAUCACGAAGUACC` | NECAP2 | -0.7301 |
| `UACUGAGCAAUAGAGCAUG` | ALK | -0.8746 |
| `UUAGGACAGACCUCUUAGC` | CACNB4 | 0.03481 |
| `UGAUUAAACCAUCAGGACC` | ROPN1B | 0.324 |
| `AUCUGAUACACCGAAUUCC` | IMPDH1 | -1.837 |
| `UUGCGAUAGAUGAGUGUGG` | LIN37 | 0.1186 |

The first 7 entries again:

* AGUUUGUCUCCUUCGAUCC against RBP7 | seed-corrected z-score -0.8734
* UCUAAGAGCAUACAAAUUC against SNX22 | seed-corrected z-score -0.1364
* UGUUAUAUCGGGAUAUGCG against UBE4B | seed-corrected z-score -0.1952
* UACGUCUUGCAGCACAUCC against HAMP | seed-corrected z-score -0.1947
* UUUAGAGGCACUUUGAGUG against SLC2A4RG | seed-corrected z-score -0.2889
* UUGCUUGCAAACGAUGCUC against GLTSCR1L | seed-corrected z-score -0.1433
* AAGUGUAUUGCUUCAACUG against RGS6 | seed-corrected z-score -0.05592

Source: PubChem BioAssay AID1159506 (NCATS, 2015).